Measurements published in publication PMC4058080.
Results are given in words; binding and its absence hold for the method and conditions named. In cells and extracts the contact can be indirect. Some entries that bind do so weakly or less than the wild type.

Protein sequences, listed by entry. Tags and fused reporters are not part of them. Lines headed by an entry give the natural chain unless they say otherwise; changes in a name come on top. Chains listed by the source or under a name are the forms on record and can include a tag or linker. Residues count along the entry.
UniProt O95166: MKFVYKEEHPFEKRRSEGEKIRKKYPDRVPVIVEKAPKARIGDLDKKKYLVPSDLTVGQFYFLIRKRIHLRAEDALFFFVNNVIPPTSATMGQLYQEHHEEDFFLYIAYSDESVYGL
HaloTag-fused GABARAP40-67: residues 40-67 of O95166

B1: Phospholipase C-related catalytically inactive protein 1 (PRIP1) (protein, UniProt Q3USB7 1-1096)
chain: MAEGAASREAPAPLDVAGGEDDPRAGADAASGDAPPPALGGRMRDRRSGVALPGAAGVPADSEAGLLEAARATPRRSSIIKDPSNQKCGGRKKTVSFSSMPSEKKISSAHDCISFMQAGCELKKVRPNSRIYNRFFTLDTDLQALRWEPSKKDLEKAKLDISAIKEIRLGKNTETFRNNGLADQICEDCAFSILHGENYESLDLVANSADVANIWVSGLRYLVSRSKQPLDFIEGNQNTPRFMWLKTVFEAADVDGNGIMLEDTSVELIKQLNPTLKESKIRLKFKEIQKSKEKLTTRVTEEEFCEAFCELCTRPEVYFLLVQISKNKEYLDANDLMLFLEAEQGVTHITEDMCLDIIRRYELSEDGRQKGFLAIDGFTQYLLSPECDIFDPEQKKVAQDMTQPLSHYYINASHNTYLIEDQFRGPADINGYVRALKMGCRSIELDVSDGPDNEPILCNRNNMAMHLSFRSVLEVINKFAFVASEYPLILCLGNHCSLPQQKVMAQQMKKVFGEKLYTEAPLSSESYLPSPEKLKNMIIVKGKKLPSESDLLEGEVTDEDEEAEMSRRMSGDYNGEQKHIWLCRELSDLVSICKSVQHRDFELSMKTQNYWEMCSFSETEASRIANEYPEDFVNYNKKFLSRVYPSAMRIDSSNLNPQDFWNCGCQIVAMNFQTPGPMMDLHTGWFLQNGGCGYVLRPSIMRDEVSYFSANTKGIVPGVSPLVLHIKIISGQNFPKPKGACAKGDVIDPYVCVEIHGIPADCCEQRTKTVQQNSDNPIFDETFEFQVNLPELTMVRFVILDDDYIGDEFIGQYTIPFECLQPGYRHVPLRSFVGDIMEHVTLFVHIAITNRSGGGKPQKRSLSVRMGKKVREYTMLRNIGLKTIDDIFKIAVHPLREAIDMRENMQNAIVSVKELCGLPPIASLKQCLLTLSSRLITSDSTPSVSLVMKDCFPYLEPLGAIPDVQKRMLAAYDLMIQESRVLIEMADTVQEKIVQCQKAGMEFHEELHNLGAKEGLKGRKLNKAIESFAWNITVLKGQGDLLKNAKNEAVENIKQIQLACLSCGLSKGPGGGSEAKGKRSLEAIEEKESSEENGKL
B2: Phospholipase C-related catalytically inactive protein 2 (PRIP2) (protein, UniProt Q8K394 1-1128)
chain: MAECGRGAAGGALPTSPSPALGAKGALKAGAGEGGGGGGGGRLGHGRARYDSGGVSNGDCSLGVSGDEARTSPGRGPLGVALARTPSPAAGPVPRDSKPGGLPRRSSIIKDGTKQKRERKKTVSFSSMPTEKKISSASDCINSMVEGSELKKVRSNSRIYHRYFLLDADMQSLRWEPSKKDSEKAKIDIKSIKEVRTGKNTDIFRSNGISEQISEDCAFSVIYGENYESLDLVANSADVANIWVTGLRYLISYGKHTLDMLESSQDNMRTSWISQMFSEIDVDGLGHITLCHAVQCIRNLNPGLKTSKIELKFKELHKSKDKAGTEITKEEFIEVFHELCTRPEIYFLLVQFSSNKEFLDTKDLMMFLEAEQGVAHINEEISLEIIHKYEPSKEGQEKGWLSIDGFTNYLMSPDCYIFDPEHKKVCQDMKQPLSHYFINSSHNTYLIEDQFRGPSDITGYIRALKMGCRSVELDVWDGPDNEPVIYTGHTMTSQIVFRSVIDIINKYAFFASEYPLILCLENHCSIKQQKVMVQHMKKILGDKLYTTSPNMEESYLPSPDVLKGKILIKAKKLSSNCSGVEGDVTDEDEGAEMSQRMGKENVEQPNHVPVKRFQLCKELSELVSICKSVQFKEFQVSFQVQKYWEVCSFNEVLASKYANENPGDFVNYNKRFLARVFPSPMRIDSSNMNPQDFWKCGCQIVAMNFQTPGLMMDLNVGWFRQNGNCGYVLRPAIMREEVSFFSANTKDSVPGVSPQLLHIKIISGQNFPKPKGSGAKGDVVDPYVYVEIHGIPADCAEQRTKTVNQNGDAPIFDESFEFQINLPELAMVRFVVLDDDYIGDEFIGQYTIPFECLQTGYRHVPLQSLTGEVLAHASLFVHVAITNRRGGGKPHKRGLSVRKGKKSREYASLRTLWIKTVDEVFKNAQPPIRDATDLRENMQNAVVSFKELCGLSSVANLMQCMLAVSPRFLGPDNNPLVVLNLSEPYPTMELQAIVPEVLKKIVTTYDMMMQSLKALIENADAVYEKIVHCQKAAMEFHEHLHSIGTKEGLKERKLQKAVESFTWNITILKGQADLLKYAKNETLENLKQIHFAAVSCGLNKPGTENSEAQKPRRSLEAIPEKASDENGD

Legend:
[1] = biological target: HaloTag-fused GABARAP40-67 (human) (UniProt O95166); assay: co-IP; HaloTag-fused GABARAP40-67 precipitated, control IgG beside it; blot for PRIP1 (supplementary Fig. S5C)
[2] = biological target: myc-tagged GABARAP (GABAA receptor-associated protein) (human) (UniProt O95166); assay: co-IP; MIN6 cells expressing myc-tagged GABARAP, low (5 mM) or high (30 mM) glucose; lysate in 20 mM HEPES-Na pH 7.5, 150 mM NaCl, 0.1% Triton X-100, 10% glycerol; anti-myc antibody or control rabbit IgG, protein G-Sepharose overnight at 4°C; blot with anti-PRIP1 and anti-PRIP2

binding [1]	binding [2]	Binder
binds	binds	B1
	binds	B2
